# Where “and” joins values, the source holds several entries; their conditions need not be identical. Equal entries are not always repeated. In all, about 350,000 compounds went through this assay and about 6,000 (1.7%) were called active. The shares of active, inactive and inconclusive entries below differ from those in the screen. Cut-off read from the data, not from the text of the source: active = CPE inhibition above about 20% (passing the limit was not always enough); inconclusive = no clear call, values can overlap the other calls; tested in BHK-21 cells. The source holds several records for some structures; these can differ, active in one and inactive in another.
# Assay: protection of cells from dengue 2 killing – plate reader, single concentration, primary screen (AID 651640);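 note: 0% = median of neutral control wells and 100% = median of positive control wells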
# Conditions: DENV2-infected cells, cytopathic effect rescue, at 9.99 µM, stronger effect = higher value
row,SMILES,CPE inhibition
1,CCCCOc1ccc(C(=O)NC2CCCCN(C)C2=O)cc1 (configuration not stated),inactive: 4.4%
2,COc1ccc(C)cc1Nc1c2c(nc3ccccc13)CCC2,inconclusive: 34.6%
3,CN(C)C(=O)[C@H]1[C@H](CO)[C@H]2Cn3c(ccc(-c4cccnc4)c3=O)[C@@H]1N2C(=O)NC1CCCC1,inconclusive: 39.1%
4,CCOC(=O)/C(C#N)=C/Nc1ccsc1C(=O)OC,inconclusive: 33.2%
5,C[C@@H]1CCCCO[C@@H](CN(C)C(=O)CCC(F)(F)F)[C@@H](C)CN([C@H](C)CO)C(=O)c2cc(NC(=O)CCC(F)(F)F)ccc2O1,inactive: 4.89%
6,COc1ccc(CN2C3CCCC2CC(NC(=O)/C=C/c2ccccc2)C3)cc1 (configuration not stated),inconclusive: 31.3%
7,Cc1ccc(C(=O)c2coc3ccc(O)c(CN(C)C)c23)cc1,inconclusive: 20.9%
8,COc1cccc(C2NC(C)(C(=O)O)C3C(=O)N(C(C)C)C(=O)C23)c1O (configuration not stated),inactive: 2.65%
9,CCNC(=O)[C@H]1[C@H](CO)[C@H]2Cn3c(cccc3=O)[C@H]2N1C(=O)CC1CC1,inconclusive: 20.9%
10,Cc1ccc(S(=O)(=O)NCC(=O)OCC(=O)N(CCC#N)c2ccccc2)cc1,inconclusive: 21.8%
11,CC1CCCCC1NC(=O)/C(C#N)=C/c1ccc(F)c(F)c1 (configuration not stated),inconclusive: 28.4%
12,CCN(C1CCCCC1)S(=O)(=O)c1cn(C)c(=O)n(C)c1=O,inconclusive: 44%
13,CN(C)c1ccc(C(=O)c2ccccc2C(=O)O)cc1[N+](=O)[O-],inactive: -0.209%
14,Cc1ccc(S(=O)(=O)N2CCC(C(=O)NNC(=O)c3ccccc3O)CC2)cc1,inconclusive: 47.8%
15,COc1ccc(N2c3ccccc3CN(Cc3ccccc3)[C@@H](C)[C@H]2Cc2c(C)cccc2C)cc1,inactive: 6.86%
16,COC(=O)C(CC(=O)c1ccc(Cl)cc1)c1ccccc1 (configuration not stated),inactive: 5.61%
17,C[C@@H]1CCCCO[C@H](CN(C)C)[C@H](C)CN([C@@H](C)CO)C(=O)c2cc(NS(=O)(=O)c3cccs3)ccc2O1,inactive: -3.61%
18,CC1(NC(=O)c2cc(Cl)nc3ccccc23)CCS(=O)(=O)C1 (configuration not stated),active: 54.3%
19,Cc1noc(C)c1NC(=O)N(C)C[C@@H]1OCCCC[C@@H](C)Oc2ccc(NC(=O)c3ccncc3)cc2C(=O)N([C@H](C)CO)C[C@@H]1C,inactive: -9.2%
20,CC[C@H](C)C(C(=O)N1CCN(C(=O)OC(C)(C)C)CC1)n1cc(C(CC(C)C)NC(=O)OC(C)(C)C)nn1 (some centres not stated),active: 31.9%
21,O=C(C[C@H]1C=C[C@H](NC(=O)NC2CCCCC2)[C@H](CO)O1)NCc1ccc(F)cc1,active: 27.9%
22,Cc1cccc(OCCC(=O)Nc2ccc(N3CCOCC3)cc2N2CCOCC2)c1,inconclusive: 21.6%
23,C[C@H](NC(=O)C[C@H]1C[C@H]2c3cc(NC(=O)NC4CCCC4)ccc3O[C@H]2[C@H](CO)O1)c1ccccc1,active: 27.9%
24,Cc1ccc(C(=O)NCC(=O)OCc2c(F)cccc2Cl)s1,inconclusive: 71.2%

row,SMILES,CPE inhibition
1,O=C(c1cccnc1)N1C[C@@H]2[C@H](c3ccccc31)[C@@H](CO)N2CC1CCCCC1,inactive: -6.49%
2,Cc1cc(C)c(NC(=O)c2ccc3c(c2)C(=O)N(Cc2cccnc2)C3=O)c(C)c1,inconclusive: 25%
3,COc1cc(/C=N/NC(=O)c2cccc3ccccc23)cc(OC)c1O,inconclusive: 60.3%
4,C[C@H]1CCCCO[C@@H](CN(C)S(=O)(=O)c2cccs2)[C@@H](C)CN([C@@H](C)CO)C(=O)c2cc(NS(=O)(=O)c3ccccc3)ccc2O1,inactive: 5.38%
5,COc1ccc(NC(=O)COC(=O)CCCC2=NS(=O)(=O)c3ccccc3N2)cc1,inactive: -4.63%
6,C[C@H](CO)N1C[C@H](C)[C@@H](CN(C)S(C)(=O)=O)OCCCC[C@H](C)Oc2ccc(NC(=O)Cc3ccccc3)cc2C1=O,inconclusive: 40.5%
7,O=C(NCC[C@H]1CC[C@@H](NC(=O)C2CCCCC2)[C@@H](CO)O1)c1ccc(F)cc1,active: 50.9%
8,CC(C)NC(=O)Nc1ccc2c(c1)C(=O)N([C@H](C)CO)C[C@H](C)[C@H](CN(C)S(=O)(=O)c1cccs1)OCCCC[C@H](C)O2,inactive: 12.7%
9,Cc1ccccc1OCC(O)Cn1c(Br)nc2c1c(=O)[nH]c(=O)n2C (configuration not stated),inactive: -3.42%
10,O=C(Nc1cccc(F)c1)N1CC(=O)N2[C@H](CO)[C@@H](c3ccc(Br)cc3)[C@@H]2C1,inactive: -2.09%
11,COc1ccccc1CNC(=O)C[C@H]1CC[C@H]2[C@@H](COC[C@H](O)CN2C(=O)Nc2ccccc2)O1,inconclusive: 35.7%
12,COc1ccc(S(=O)(=O)N(C)C[C@@H]2Oc3cc(C4=CCCC4)ccc3S(=O)(=O)N([C@H](C)CO)C[C@@H]2C)cc1,inactive: -4.4%
13,O=C(Cc1ccccn1)N[C@H]1CC[C@H](CCn2cc(-c3cccnc3)nn2)O[C@@H]1CO,active: 58.3%
14,CCC1(c2ccccc2)NC(=O)N(CC(=O)Nc2ccccc2C(=O)N2CCCCC2)C1=O (configuration not stated),active: 34.8%
15,CO[C@@H]1CN(C)C(=O)c2ccc(NC(=O)Nc3c(C)noc3C)cc2OC[C@@H](C)N(C)C[C@@H]1C,inactive: -6.07%
16,COc1ccccc1C(=O)Nc1ccc2c(c1)nc1n2CCN(Cc2ccccc2)C1,inconclusive: 20.5%
17,CC(C)C(C)(C#N)NC(=O)COC(=O)C1CCN(S(=O)(=O)c2ccc3c(c2)OCCO3)CC1 (configuration not stated),inconclusive: 23.8%
18,CCc1nc(SCC(=O)OC(C)C)c2ccccc2n1,inconclusive: 20.9%
19,O=C(NC1CCCCC1)C1CCC(CNS(=O)(=O)c2ccccc2)CC1 (configuration not stated),inconclusive: 42.7%
20,C[C@@H]1CN([C@H](C)CO)S(=O)(=O)c2ccc(C3=CCCCC3)cc2O[C@H]1CN(C)Cc1ccccn1,inactive: -8.57%
21,COC(=O)C[C@H]1C[C@H]2c3cc(NC(=O)CC4CC4)ccc3O[C@H]2[C@@H](CO)O1,inactive: 1.04%
22,CCOc1ccc(-c2noc(CCCC(=O)NC3CCCC3)n2)cc1OC,inactive: 1.69%
23,CCCN1C(=O)C2(SC(NC(C)=O)=NN2C(C)=O)c2cc(C)cc(C)c21 (configuration not stated),inconclusive: 20.7%
24,COc1ccc(NC(=O)N(C)C[C@@H]2OCCCC[C@@H](C)Oc3ccc(N(C)C)cc3C(=O)N([C@@H](C)CO)C[C@H]2C)cc1,inconclusive: 47.3%

row,SMILES,CPE inhibition
1,CC(=O)c1cccc(NC(=O)COc2cc(C)on2)c1,inconclusive: 51.3%
2,CCC(=O)N1CCCCN2[C@@H](CO)[C@@H](c3ccc(C#CCOC)cc3)[C@@H]2C1,inconclusive: 28.6%
3,C[C@@H]1CN([C@@H](C)CO)S(=O)(=O)c2ccc(C#Cc3cccnc3)cc2O[C@@H]1CN(C)C,inconclusive: 46.8%
4,C[C@H](CO)N1C[C@H](C)[C@H](CN(C)Cc2ccccc2)OCCCC[C@H](C)Oc2ccc(NC(=O)CCC(F)(F)F)cc2C1=O,inconclusive: 44.6%
5,COc1ccc(S(=O)(=O)Nc2ccc3c(c2)C(=O)N([C@H](C)CO)C[C@H](C)[C@H](CN(C)Cc2ccncc2)OCCCC[C@@H](C)O3)cc1,active: 21.7%
6,CO[C@@H](CN(C)Cc1nccs1)[C@H](C)CN([C@H](C)CO)S(=O)(=O)c1ccc(C)cc1,inactive: 5.79%
7,COc1ccc([C@H]2CC(=O)C=C(c3ccc4cc[nH]c4c3)C2)cc1,active: 65.5%
8,O=C(OC1CCOC1=O)c1cccc(S(=O)(=O)Nc2ccc(F)cc2)c1 (configuration not stated),inconclusive: 29.8%
9,CCOc1ccc(NC(=S)NC23CN4CN(CN(C4)C2)C3)cc1,inconclusive: 29.8%
10,CC(C)n1cnnc1SCC(=O)Nc1cccnc1Cl,active: 68.4%
11,C/C=C/c1ccc([C@H]2[C@@H](CO)N(C(=O)C3CCC3)[C@@H]2CNC(=O)NC(C)C)cc1,active: 79.6%
12,CC(C)(C)c1[nH]nc2c1C(c1ccco1)C(C#N)=C(N)O2 (configuration not stated),inactive: -6.46%
13,COc1ccccc1-c1cnc2c(c1)C(=O)N([C@H](C)CO)C[C@@H](C)[C@@H](CN(C)Cc1cccc(F)c1)O2,inconclusive: 62.3%
14,COc1cc(CN(C)Cc2cccc3ccccc23)cc([N+](=O)[O-])c1O,active: 42.5%
15,CN(C)C(=O)C[C@H]1C[C@@H]2c3cc(NS(=O)(=O)c4ccccc4)ccc3O[C@@H]2[C@H](CO)O1,inactive: 1.03%
16,COc1ccc(S(=O)(=O)N(C)C[C@@H]2OCc3cnnn3CCCC(=O)N([C@@H](C)CO)C[C@H]2C)cc1,inactive: 3.8% and active: 27.9% and inactive: -17.3%
17,C[C@H](O)C#Cc1cnc2c(c1)C(=O)N([C@H](C)CO)C[C@H](C)[C@H](CN(C)C(=O)Nc1ccc(C(F)(F)F)cc1)O2,inconclusive: 39.8%
18,O=C(C[C@@H]1CC[C@H](NC(=O)c2ccncc2)[C@H](CO)O1)Nc1ccccc1,inactive: -4.83%
19,COCC(=O)Nc1ccc2c(c1)[C@H]1C[C@H](CC(=O)NCc3ccccc3)O[C@@H](CO)[C@H]1O2,active: 21%
20,CCCC(=O)Nc1ccc(S(=O)(=O)Nc2nccs2)cc1,inconclusive: 31.7%
21,N#Cc1cnc(SCC(=O)N2CCCCC2)nc1N,inconclusive: 33.2%
22,C[C@@H]1CN([C@H](C)CO)C(=O)c2cc(-c3cccnc3)cnc2O[C@@H]1CN(C)C,inactive: 18.3%
23,Cc1noc(C)c1NC(=O)N(C)C[C@@H]1Oc2c(NC(=O)Nc3ccc(C(F)(F)F)cc3)cccc2C(=O)N([C@H](C)CO)C[C@@H]1C,inactive: 9.9%
24,CCCNC(=O)[C@H]1[C@H](CO)[C@H]2Cn3c(ccc(-c4ccccc4)c3=O)[C@H]2N1C(=O)c1ccccc1F,inconclusive: 66%

# Individual results from the results shown:
# In CPE inhibition, CCCNC(=O)[C@H]1[C@H](CO)[C@H]2Cn3c(ccc(-c4ccccc4)c3=O)[C@H]2N1C(=O)c1ccccc1F is entered as inconclusive: 66%
# In CPE inhibition, O=C(C[C@H]1C=C[C@H](NC(=O)NC2CCCCC2)[C@H](CO)O1)NCc1ccc(F)cc1 is entered as active: 27.9%
# In CPE inhibition, CC(C)C(C)(C#N)NC(=O)COC(=O)C1CCN(S(=O)(=O)c2ccc3c(c2)OCCO3)CC1 (configuration not stated) is entered as inconclusive: 23.8%
# In CPE inhibition, CC1CCCCC1NC(=O)/C(C#N)=C/c1ccc(F)c(F)c1 (configuration not stated) is entered as inconclusive: 28.4%
